Reference: the supplement of paper PMC10849652
The list shows a part of the results.

By UniProt entry, the sequences of proteins in these tests, tags left out. Where a name states a change or a piece, a line headed by the entry shows the natural chain unless it says otherwise.
UniProt Q9NYB0: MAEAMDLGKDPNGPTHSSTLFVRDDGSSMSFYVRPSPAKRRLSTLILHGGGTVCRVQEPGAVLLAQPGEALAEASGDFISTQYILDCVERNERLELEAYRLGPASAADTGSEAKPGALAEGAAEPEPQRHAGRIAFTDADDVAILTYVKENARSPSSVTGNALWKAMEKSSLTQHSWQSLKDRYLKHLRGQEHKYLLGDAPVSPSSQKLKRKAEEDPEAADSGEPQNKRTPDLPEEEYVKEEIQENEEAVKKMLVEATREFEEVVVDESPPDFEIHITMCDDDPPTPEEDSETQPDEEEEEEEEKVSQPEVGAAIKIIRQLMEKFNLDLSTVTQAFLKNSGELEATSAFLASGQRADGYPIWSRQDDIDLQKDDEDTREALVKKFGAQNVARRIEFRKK
UniProt Q9Y2W1: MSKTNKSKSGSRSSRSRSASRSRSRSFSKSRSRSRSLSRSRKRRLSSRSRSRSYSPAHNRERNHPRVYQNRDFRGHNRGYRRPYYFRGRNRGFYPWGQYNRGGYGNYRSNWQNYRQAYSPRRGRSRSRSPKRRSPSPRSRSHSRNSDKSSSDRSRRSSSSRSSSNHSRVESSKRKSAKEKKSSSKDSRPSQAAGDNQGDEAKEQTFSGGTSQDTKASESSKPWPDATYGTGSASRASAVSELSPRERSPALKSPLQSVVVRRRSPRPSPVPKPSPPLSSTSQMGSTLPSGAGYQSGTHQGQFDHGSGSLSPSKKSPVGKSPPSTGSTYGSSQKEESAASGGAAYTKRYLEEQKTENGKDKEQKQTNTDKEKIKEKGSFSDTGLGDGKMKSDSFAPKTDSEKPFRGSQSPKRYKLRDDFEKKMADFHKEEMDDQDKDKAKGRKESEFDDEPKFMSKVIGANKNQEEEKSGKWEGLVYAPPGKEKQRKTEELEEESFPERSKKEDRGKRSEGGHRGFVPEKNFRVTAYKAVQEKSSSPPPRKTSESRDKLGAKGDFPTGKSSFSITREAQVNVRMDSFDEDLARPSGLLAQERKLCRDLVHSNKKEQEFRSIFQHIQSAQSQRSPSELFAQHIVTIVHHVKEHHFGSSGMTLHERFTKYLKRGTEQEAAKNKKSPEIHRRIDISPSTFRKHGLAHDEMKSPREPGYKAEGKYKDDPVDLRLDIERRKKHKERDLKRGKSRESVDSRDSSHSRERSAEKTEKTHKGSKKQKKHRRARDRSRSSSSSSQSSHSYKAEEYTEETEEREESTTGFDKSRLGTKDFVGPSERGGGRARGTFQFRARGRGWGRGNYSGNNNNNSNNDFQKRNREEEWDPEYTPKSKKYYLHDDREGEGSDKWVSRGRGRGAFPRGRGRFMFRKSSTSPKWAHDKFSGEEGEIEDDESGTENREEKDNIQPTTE
UniProt Q9UDY2: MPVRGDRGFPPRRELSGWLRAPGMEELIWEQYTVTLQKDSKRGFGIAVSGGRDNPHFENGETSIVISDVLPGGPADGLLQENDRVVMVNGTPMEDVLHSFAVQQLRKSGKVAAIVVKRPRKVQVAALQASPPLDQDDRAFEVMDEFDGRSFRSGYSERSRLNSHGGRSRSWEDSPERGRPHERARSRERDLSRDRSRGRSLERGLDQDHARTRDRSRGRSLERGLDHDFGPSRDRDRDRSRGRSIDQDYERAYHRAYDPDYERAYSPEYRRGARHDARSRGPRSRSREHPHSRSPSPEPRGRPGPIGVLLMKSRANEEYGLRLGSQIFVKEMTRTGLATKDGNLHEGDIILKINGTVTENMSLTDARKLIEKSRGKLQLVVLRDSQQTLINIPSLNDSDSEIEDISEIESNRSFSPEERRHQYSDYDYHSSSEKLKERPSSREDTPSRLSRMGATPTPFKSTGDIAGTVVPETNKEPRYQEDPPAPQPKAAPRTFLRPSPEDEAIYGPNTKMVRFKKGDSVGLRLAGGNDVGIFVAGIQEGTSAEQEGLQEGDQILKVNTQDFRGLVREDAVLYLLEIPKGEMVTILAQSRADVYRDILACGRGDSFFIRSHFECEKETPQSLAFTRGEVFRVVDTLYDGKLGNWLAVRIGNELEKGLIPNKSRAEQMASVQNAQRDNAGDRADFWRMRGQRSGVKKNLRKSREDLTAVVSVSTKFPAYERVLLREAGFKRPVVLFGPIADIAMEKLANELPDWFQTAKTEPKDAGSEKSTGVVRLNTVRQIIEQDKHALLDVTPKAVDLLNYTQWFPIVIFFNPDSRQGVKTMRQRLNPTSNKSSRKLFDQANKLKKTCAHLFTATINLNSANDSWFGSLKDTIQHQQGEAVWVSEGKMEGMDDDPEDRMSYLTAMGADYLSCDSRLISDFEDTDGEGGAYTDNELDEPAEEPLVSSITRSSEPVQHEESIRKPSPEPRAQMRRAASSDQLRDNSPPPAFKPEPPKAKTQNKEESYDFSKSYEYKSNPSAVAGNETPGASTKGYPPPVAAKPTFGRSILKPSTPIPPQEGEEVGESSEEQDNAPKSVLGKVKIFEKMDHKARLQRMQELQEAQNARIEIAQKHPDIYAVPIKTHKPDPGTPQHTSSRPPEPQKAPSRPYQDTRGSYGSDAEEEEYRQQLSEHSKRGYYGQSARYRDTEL
UniProt Q9BVV7: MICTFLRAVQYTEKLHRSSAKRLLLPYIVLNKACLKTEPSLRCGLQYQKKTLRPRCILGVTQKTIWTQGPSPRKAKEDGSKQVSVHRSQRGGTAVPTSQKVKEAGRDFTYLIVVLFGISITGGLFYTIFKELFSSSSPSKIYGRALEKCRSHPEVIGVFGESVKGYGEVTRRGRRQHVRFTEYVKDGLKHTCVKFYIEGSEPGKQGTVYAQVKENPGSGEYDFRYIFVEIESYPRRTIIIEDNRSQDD
UniProt P02786, whole entry, looked up: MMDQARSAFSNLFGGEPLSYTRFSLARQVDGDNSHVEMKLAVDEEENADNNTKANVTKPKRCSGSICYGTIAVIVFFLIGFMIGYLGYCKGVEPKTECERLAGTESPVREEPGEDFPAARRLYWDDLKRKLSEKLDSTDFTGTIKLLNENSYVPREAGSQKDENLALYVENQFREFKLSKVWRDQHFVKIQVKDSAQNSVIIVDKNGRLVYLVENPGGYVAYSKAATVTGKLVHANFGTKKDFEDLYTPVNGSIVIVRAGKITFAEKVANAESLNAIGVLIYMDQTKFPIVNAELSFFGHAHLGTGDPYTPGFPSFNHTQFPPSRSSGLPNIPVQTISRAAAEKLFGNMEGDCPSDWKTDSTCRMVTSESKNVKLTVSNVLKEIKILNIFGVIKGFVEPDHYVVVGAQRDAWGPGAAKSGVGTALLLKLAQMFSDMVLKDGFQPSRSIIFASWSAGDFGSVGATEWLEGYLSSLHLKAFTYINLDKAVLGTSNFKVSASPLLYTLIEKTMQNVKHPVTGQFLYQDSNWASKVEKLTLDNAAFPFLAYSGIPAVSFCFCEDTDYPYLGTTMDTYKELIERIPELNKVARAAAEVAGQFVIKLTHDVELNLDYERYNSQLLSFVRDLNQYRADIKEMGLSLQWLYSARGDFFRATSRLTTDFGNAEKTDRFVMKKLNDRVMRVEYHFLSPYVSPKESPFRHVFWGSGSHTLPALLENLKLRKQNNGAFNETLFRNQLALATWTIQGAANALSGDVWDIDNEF
UniProt Q9H5Q4: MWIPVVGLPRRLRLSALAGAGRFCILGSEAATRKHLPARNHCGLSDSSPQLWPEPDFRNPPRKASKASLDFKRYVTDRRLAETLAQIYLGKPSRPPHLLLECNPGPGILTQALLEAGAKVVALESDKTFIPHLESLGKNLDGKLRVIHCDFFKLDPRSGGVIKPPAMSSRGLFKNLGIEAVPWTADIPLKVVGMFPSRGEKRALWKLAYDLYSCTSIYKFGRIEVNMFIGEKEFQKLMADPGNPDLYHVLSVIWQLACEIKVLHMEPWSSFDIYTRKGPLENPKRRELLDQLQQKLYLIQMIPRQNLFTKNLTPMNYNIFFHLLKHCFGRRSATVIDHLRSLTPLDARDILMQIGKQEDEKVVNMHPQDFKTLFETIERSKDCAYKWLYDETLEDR
UniProt Q8WUH2: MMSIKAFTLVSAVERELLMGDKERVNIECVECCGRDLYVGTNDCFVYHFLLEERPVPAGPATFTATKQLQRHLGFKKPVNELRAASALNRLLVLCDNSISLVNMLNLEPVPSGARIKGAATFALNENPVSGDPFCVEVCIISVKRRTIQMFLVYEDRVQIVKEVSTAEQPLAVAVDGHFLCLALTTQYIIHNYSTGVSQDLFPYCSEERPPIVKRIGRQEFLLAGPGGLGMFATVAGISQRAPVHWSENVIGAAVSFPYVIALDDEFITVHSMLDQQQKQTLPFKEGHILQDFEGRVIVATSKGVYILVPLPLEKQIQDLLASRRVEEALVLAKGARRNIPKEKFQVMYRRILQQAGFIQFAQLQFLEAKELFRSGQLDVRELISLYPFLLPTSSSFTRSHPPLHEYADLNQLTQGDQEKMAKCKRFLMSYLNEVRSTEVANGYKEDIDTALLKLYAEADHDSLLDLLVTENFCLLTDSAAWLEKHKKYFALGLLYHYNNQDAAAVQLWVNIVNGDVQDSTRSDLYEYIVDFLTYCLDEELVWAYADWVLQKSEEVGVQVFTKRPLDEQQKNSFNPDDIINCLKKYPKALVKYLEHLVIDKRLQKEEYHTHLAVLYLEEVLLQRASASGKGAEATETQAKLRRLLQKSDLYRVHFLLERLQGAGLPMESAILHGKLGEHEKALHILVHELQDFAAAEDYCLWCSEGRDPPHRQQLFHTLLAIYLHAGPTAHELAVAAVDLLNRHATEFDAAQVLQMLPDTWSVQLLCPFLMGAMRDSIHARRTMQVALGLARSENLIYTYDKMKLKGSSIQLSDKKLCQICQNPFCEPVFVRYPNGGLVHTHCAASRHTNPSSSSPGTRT
UniProt P62072: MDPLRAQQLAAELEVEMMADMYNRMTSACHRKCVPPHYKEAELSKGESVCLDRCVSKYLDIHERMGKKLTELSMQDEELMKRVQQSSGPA
UniProt O75663: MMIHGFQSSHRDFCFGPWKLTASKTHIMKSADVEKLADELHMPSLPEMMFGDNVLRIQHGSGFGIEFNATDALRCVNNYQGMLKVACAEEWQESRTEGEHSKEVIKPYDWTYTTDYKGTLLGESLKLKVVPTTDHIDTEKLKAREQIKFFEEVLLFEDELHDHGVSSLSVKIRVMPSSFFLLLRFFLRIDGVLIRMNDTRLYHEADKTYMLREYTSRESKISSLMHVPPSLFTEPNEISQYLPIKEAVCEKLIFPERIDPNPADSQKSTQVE
UniProt Q99595: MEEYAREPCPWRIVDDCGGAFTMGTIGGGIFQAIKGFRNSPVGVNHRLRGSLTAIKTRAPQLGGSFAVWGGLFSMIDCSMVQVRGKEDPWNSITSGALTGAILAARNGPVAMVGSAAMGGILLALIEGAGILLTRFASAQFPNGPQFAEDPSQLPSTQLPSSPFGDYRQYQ
UniProt Q9Y5J6: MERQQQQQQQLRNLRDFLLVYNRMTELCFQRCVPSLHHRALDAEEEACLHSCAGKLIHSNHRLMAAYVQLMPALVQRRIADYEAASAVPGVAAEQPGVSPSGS
UniProt Q9UP52: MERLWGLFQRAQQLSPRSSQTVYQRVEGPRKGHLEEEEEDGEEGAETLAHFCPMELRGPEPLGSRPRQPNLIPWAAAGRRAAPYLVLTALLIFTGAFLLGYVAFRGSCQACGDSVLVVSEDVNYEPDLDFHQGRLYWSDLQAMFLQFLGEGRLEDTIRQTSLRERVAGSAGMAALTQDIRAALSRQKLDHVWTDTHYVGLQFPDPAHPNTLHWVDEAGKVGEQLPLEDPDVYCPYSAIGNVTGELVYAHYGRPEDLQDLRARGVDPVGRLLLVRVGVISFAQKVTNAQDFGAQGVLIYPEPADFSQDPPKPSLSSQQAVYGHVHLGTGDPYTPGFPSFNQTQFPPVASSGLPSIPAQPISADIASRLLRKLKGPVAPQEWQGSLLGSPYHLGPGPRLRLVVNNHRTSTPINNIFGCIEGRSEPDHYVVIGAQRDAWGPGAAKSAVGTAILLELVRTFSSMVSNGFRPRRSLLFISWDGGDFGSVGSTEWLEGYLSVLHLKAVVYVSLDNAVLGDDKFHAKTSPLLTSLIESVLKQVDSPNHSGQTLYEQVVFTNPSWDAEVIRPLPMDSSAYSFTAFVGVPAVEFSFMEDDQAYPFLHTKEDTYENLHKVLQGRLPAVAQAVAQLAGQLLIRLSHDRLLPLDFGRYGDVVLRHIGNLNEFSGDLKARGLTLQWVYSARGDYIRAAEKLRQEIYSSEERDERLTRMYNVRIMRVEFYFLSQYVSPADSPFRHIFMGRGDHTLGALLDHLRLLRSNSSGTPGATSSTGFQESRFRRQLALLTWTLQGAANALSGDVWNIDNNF

How the values were obtained:
Test in all cases: log2 fold change, soluble protein after heating vs DMSO (PISA); higher = thermal stabilisation; K562 cells, 10 uM, 30 min; active = over 0.2 and 3.5 SD of the protein, either way, in both replicates (recomputed)
[1] = compound: NC(=O)Nc1cc(-c2cccc(F)c2)sc1C(=O)N[C@H]1CCCNC1
How it was run: (§1)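 K562 cells at 2×10^6 cells/mL were treated with 10 μM compound for 30 min. Aliquots were heated for 3 min across 48°C-58°C, pooled, and extracted in PBS with 0.5% NP-40 at 4°C; soluble protein was the supernatant after 21,000xg for 90 min. Soluble protein was quantified by TMTpro 16plex LC-MS/MS with channel sums equalised, and reported as log2 fold change in thermal stability against DMSO controls, with values from duplicates.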

[2] = compound: NC(=O)c1cnc(N[C@@H]2CCCC[C@@H]2N)nc1Nc1cccc(-n2nccn2)c1
How it was run: as §1

[3] = compound: NC1(c2ccc(-c3nc4ccn5c(=O)[nH]nc5c4cc3-c3ccccc3)cc2)CCC1
How it was run: as §1

[4] = compound: NCC(=O)Nc1ccc(-n2nc(C(F)(F)F)cc2-c2ccc3c(ccc4ccccc43)c2)cc1
How it was run: as §1

entinostat = compound: Nc1ccccc1NC(=O)c1ccc(CNC(=O)OCc2cccnc2)cc1 [entinostat]
How it was run: as §1

vorinostat = compound: O=C(CCCCCCC(=O)Nc1ccccc1)NO [vorinostat]
How it was run: as §1

citarinostat = compound: O=C(CCCCCCNC(=O)c1cnc(N(c2ccccc2)c2ccccc2Cl)nc1)NO [citarinostat]
How it was run: as §1

silmitasertib = compound: O=C(O)c1ccc2c(c1)nc(Nc1cccc(Cl)c1)c1ccncc12 [silmitasertib]
How it was run: as §1

[5] = compound: O=C1NC(=O)C(c2cnc3ccccn23)=C1c1cn2c3c(cc(F)cc13)CN(C(=O)N1CCCCC1)CC2
How it was run: as §1

[6] = compound: c1cc(OCCN2CCCCC2)cc(-c2n[nH]c3ccc(-c4nnc[nH]4)cc23)c1
How it was run: as §1

entospletinib = compound: c1cn2cc(-c3ccc4cn[nH]c4c3)nc(Nc3ccc(N4CCOCC4)cc3)c2n1 [entospletinib]
How it was run: as §1

Measured: log2 fold change

TERF2IP (UniProt Q9NYB0)
inactive: [1] 0.009 | [2] -0.132 | [3] 0.007 | [4] -0.018 | entinostat 0.061 | vorinostat 0.041 | citarinostat 0.068 | silmitasertib 0.121 | [5] -0.051 | [6] -0.073

THRAP3 (UniProt Q9Y2W1)
inactive: [1] -0.02 | [2] -0.076 | [3] -0.153 | [4] -0.037 | entinostat 0.024 | vorinostat 0.021 | citarinostat 0.005 | silmitasertib -0.169 | [5] -0.026 | [6] -0.257

TJP2 isoform 7 (UniProt Q9UDY2)
inactive: [1] -0.129 | [2] -0.007 | [3] -0.171 | [4] -0.051 | entinostat 0.014 | vorinostat 0.161 | citarinostat 0.039 | silmitasertib -0.061 | [5] 0.025 | [6] -0.167

TIMM21 (UniProt Q9BVV7)
inactive: [1] -0.041 | [2] -0.055 | [3] -0.087 | [4] -0.047 | entinostat -0.015 | vorinostat 0.04 | citarinostat 0.052 | silmitasertib 0.024 | [5] -0.016 | [6] -0.016

TFRC (UniProt P02786)
inactive: [1] -0.021 | [2] -0.031 | [4] -0.001 | entinostat -0.008 | vorinostat -0.02 | citarinostat 0.062 | silmitasertib 0.006 | [5] -0.023 | [6] -0.071
active: [3] -0.823

TFB2M (UniProt Q9H5Q4)
inactive: [1] -0.029 | [2] -0.066 | [3] -0.187 | [4] -0.066 | entinostat 0.054 | vorinostat 0.027 | citarinostat 0.01 | silmitasertib 0.046 | [5] -0.024 | [6] 0.003

TGFBRAP1 (UniProt Q8WUH2)
inactive: [1] 0.065 | [2] -0.03 | [3] -0.209 | [4] -0.006 | entinostat -0.013 | vorinostat 0.256 | citarinostat -0.367 | silmitasertib 0.056 | [5] 0.069 | [6] 0.013

TIMM10 (UniProt P62072)
inactive: [1] -0.004 | [2] 0.042 | [3] -0.027 | [4] -0.077 | entinostat 0.058 | vorinostat -0.048 | citarinostat -0.012 | silmitasertib 0.009 | [5] -0.04 | [6] -0.043

TIPRL (UniProt O75663)
inactive: [1] -0.057 | [2] -0.114 | [4] -0.068 | entinostat 0.033 | vorinostat 0.095 | citarinostat 0.069 | silmitasertib -0.032 | [5] -0.06 | [6] -0.012
active: [3] -0.209

TIMM17A (UniProt Q99595)
inactive: [1] 0.019 | [2] 0.013 | [3] -0.057 | [4] 0.062 | entinostat 0.012 | vorinostat -0.03 | citarinostat 0.023 | silmitasertib 0 | [5] 0.036 | [6] -0.064 | entospletinib -0.049

TIMM10B (UniProt Q9Y5J6)
inactive: [1] 0.021 | [2] 0.257 | [3] -0.111 | [4] -0.007 | entinostat 0.016 | vorinostat -0.202 | citarinostat 0.074 | silmitasertib 0.034 | [5] -0.04 | [6] 0.022

TFR2 (UniProt Q9UP52)
inactive: [1] -0.039 | [2] -0.004 | [4] 0.007 | entinostat 0.007 | vorinostat 0.002 | citarinostat 0.033 | silmitasertib -0.001 | [5] -0.035 | [6] -0.067
active: [3] -0.601

TBRG4 (UniProt Q969Z0)
inactive: [1] -0.103 | [2] -0.172 | [3] -0.58 | [4] -0.255 | entinostat 0.214 | vorinostat 0.201 | citarinostat 0.128 | silmitasertib 0.074 | [5] -0.191 | [6] -0.086

2 entries picked at random from the list so far:
TIMM10B (UniProt Q9Y5J6)
inactive: [1] 0.021 | [2] 0.257 | [3] -0.111 | [4] -0.007 | entinostat 0.016 | vorinostat -0.202 | citarinostat 0.074 | silmitasertib 0.034 | [5] -0.04 | [6] 0.022

TIMM17A (UniProt Q99595)
inactive: [1] 0.019 | [2] 0.013 | [3] -0.057 | [4] 0.062 | entinostat 0.012 | vorinostat -0.03 | citarinostat 0.023 | silmitasertib 0 | [5] 0.036 | [6] -0.064 | entospletinib -0.049

Continued.

TBCD (UniProt Q9BTW9)
inactive: [1] 0.003 | [2] -0.057 | [3] -0.146 | [4] -0.03 | entinostat 0.03 | vorinostat -0.013 | citarinostat 0.028 | silmitasertib 0.039 | [5] -0.001 | [6] -0.063

TIMM44 (UniProt O43615)
active: [3] -0.372
inactive: [1] -0.085 | [2] -0.141 | [4] -0.023 | entinostat 0.084 | vorinostat 0.04 | citarinostat 0.066 | silmitasertib -0.041 | [5] -0.027 | [6] -0.048
